# Measured values from PubChem BioAssay AID485314 (National Center for Advancing Translational Sciences (NCATS), 2010).
# Screen size: about 340,000 compounds; about 4,500 (1.3%) were called active. Inconclusive results, whose numbers are uncertain, are shown with a selection of clear calls. The call rests on the fitted dose curve; in most records, active means well fitted inhibition curve with a large enough effect; inconclusive means small, poorly fitted or top-dose-only effect, or another doubt; inactive means no such curve, though single readings can be large or run the other way. Potencies beside an inconclusive call are fits to weak or partial responses and may not hold up.
# Target: DNA polymerase beta (Homo sapiens) (UniProt P06746)
# Experiment: qHTS Assay for Inhibitors of DNA Polymerase Beta
# Conditions: Pol beta primer extension/strand displacement, fluorescence kinetic; activity change, negative = inhibition: at 114 µM (top of the series)
# Summary of the method: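 Reaction started by 50 nM substrate onto compound-treated Pol beta (10 nM, 15 min preincubation, room temperature); plates read at 0 min and 10 min. Normalized concentration-effect data fitted by four-parameter Hill equation.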
# On the % scale 0 is the no-effect control and ±100 the full control effect; potency means the concentration at half of the fitted maximal effect.
Compound,Potency,"activity change, negative = inhibition"
CCOC(=O)c1sc2ncn(CC(=O)Nc3cc(C)cc(C)c3)c(=O)c2c1C,inactive,
CCOc1ccc(NC(=S)NCCCc2ccccc2)cc1,inactive,
O=C(NC1CCCC1)C(c1ccc(O)cc1)N(CC1CCCO1)C(=O)C1COc2ccccc2O1 (stereo not given),"inconclusive: 2 µM [inhibitor, full curve]",
O=C(O)CCc1ccc(-c2ccccc2)o1,"inconclusive: 3.16 µM [inhibitor, partial curve]",
CCOC(=O)COc1nc(-c2ccccc2)cc(-c2ccco2)c1C#N,"inconclusive: 14.1 µM [inhibitor, full curve, poor fit]",
CCS(=O)(=O)N1CCC(N2CCC(C)CC2)CC1,"inconclusive: 1.58 µM [inhibitor, full curve, poor fit]",
C=CCNC(=O)c1snnc1-c1ccccc1,"inconclusive: 100 µM [inhibitor, partial curve]",
COc1cc(NC(=O)CN2C(=O)C(c3ccc(C)cc3)=NC23CCCCCC3)cc(OC)c1,inactive,
Cc1cc(C)nc(NS(=O)(=O)c2ccc(N/C=C\C(=O)c3ccc(Cl)cc3)cc2)n1,"inconclusive: 31.6 µM [inhibitor, full curve]",
O=C(O)c1ccc2c(c1)C(=O)/C(=C\c1ccco1)C2=O,active: 2.24 µM,
O=C(Nc1nnc(Cc2ccc(Cl)cc2)s1)c1cccs1,"inconclusive: 89.1 µM [inhibitor, single point]",
CCN(CC)S(=O)(=O)c1ccc(O)c(NC(=O)c2cc(-c3cc(OC)c(OC)c(OC)c3)nc3ccccc23)c1,"inconclusive: 50.1 µM [inhibitor, partial curve, poor fit]",
Cc1cc(NC(=O)c2cc3nc(C4CC4)cc(C(F)(F)F)n3n2)no1,"inconclusive: 17.8 µM [inhibitor, single point]",
O=C(CSC(=S)N1CCOCC1)c1cc(Br)cc(Br)c1O,active: 31.6 µM,
COC(=O)c1ccc(NC(=O)CSc2nccn2Cc2ccc(Cl)cc2)cc1,inactive,
COc1ccc(-n2c(O)c(/C=N/NS(=O)(=O)c3cccc([N+](=O)[O-])c3)c3ccccc3c2=O)cc1OC,inactive,
C=CCOc1ccc(CNc2ccc3[nH]c(=O)[nH]c3c2)cc1OC,"inconclusive: 11.2 µM [inhibitor, partial curve, poor fit]",
c1ccc2c(c1)ncn2-c1ccc(-c2ccnc(-c3ccncc3)n2)cc1,"inconclusive: 39.8 µM [inhibitor, single point]",
O=C(O)CCn1cc(/C=C/C(=O)c2ccc(Cl)cc2)c(-c2cccc(Br)c2)n1,,inconclusive: -38.3% [inhibitor]
Cc1ccc(NC(=O)CN2C(=O)S/C(=C\c3cc(C)n(C)c3C)C2=O)cc1,inactive,
Cc1ccc(Cc2cnc(N3C(=N)SC(c4ccccc4)C3=O)s2)cc1 (stereo not given),"inconclusive: 20 µM [inhibitor, partial curve]",
O=C(Cn1c2ncccc2c(=O)n1-c1ccccc1)Nc1cccc(C(F)(F)F)c1,"inconclusive: 44.7 µM [inhibitor, single point]",
Cc1nc(Nc2ccc(C(=O)O)cc2)nc(Nc2ccc(C(=O)O)cc2)c1[N+](=O)[O-],inactive,
O=C(/C=C/c1ccco1)OCn1nnc2ccccc2c1=O,active: 20 µM,

Compound,Potency,"activity change, negative = inhibition"
CN1C(=O)S/C(=C/c2cccn2-c2cccc(C(=O)O)c2)C1=O,"inconclusive: 31.6 µM [inhibitor, partial curve]",
COc1ccc(CCC(=O)NCCCNC(=O)CCc2ccc(OC)cc2)cc1,"inconclusive: 89.1 µM [inhibitor, single point]",
NC(=O)c1ccccc1OCC(=O)N1CCc2ccccc2C1,"inconclusive: 89.1 µM [inhibitor, single point]",
CCN1CCN(c2cc(C)c3cc(NC(=O)c4cc(OC)c(OC)c(OC)c4)ccc3n2)CC1,"inconclusive: 56.2 µM [inhibitor, partial curve, poor fit]",
Cc1ccc(C(=O)NCC(=O)NCCc2ccc(S(N)(=O)=O)cc2)s1,"inconclusive: 89.1 µM [inhibitor, single point]",
O=C(COc1ccccc1Cl)N1CCCCCCC1,"inconclusive: 100 µM [inhibitor, single point]",
CCOC(=O)C1CCN(C2=C(NS(=O)(=O)c3ccc(Cl)cc3)C(=O)c3ccccc3C2=O)CC1,inactive,
CCc1ccc2oc(C(=O)N(Cc3cccc(Cl)c3)Cc3ccco3)c(C)c2c1,inactive,
O=C(N/N=C/c1ccccc1)c1n[nH]c2c1CCCC2,inactive,
N#Cc1ccc(NC(=O)c2sc3cc(C(F)(F)F)cnc3c2-c2cccs2)cc1,"inconclusive: 0.316 µM [inhibitor, full curve]",
Cc1ccc(C)c(NC(=O)Cn2cc(S(=O)(=O)N3CCCC3)c(S(=O)(=O)N3CCCC3)c2)c1,inactive,
Cc1cccc(NC(=O)CSc2nc(C)cc(C)c2C(=O)Nc2ccc(Cl)cc2)c1,inactive,
COc1ccc(Br)cc1/C=c1\sc2nc(-c3ccco3)nn2c1=O,active: 4.47 µM,
CCC(=O)C1=C(c2cccc([N+](=O)[O-])c2)N(C(=O)CC)n2c(nnc2C2CCCCC2)S1,inactive,
CC(C)S(=O)(=O)c1csc(NC(=O)Nc2ccc(Cl)cc2)c1,"inconclusive: 79.4 µM [inhibitor, single point]",
COc1ccc(-c2ccc(/C=C3/C(=N)N4C(C)=CSC4=NC3=O)o2)c([N+](=O)[O-])c1,"inconclusive: 28.2 µM [inhibitor, full curve]",
O=C(c1nc2ccc(Cl)cn2c1CN1CCCC1)N1CCc2ccccc2C1,,inconclusive: -94.6% [inhibitor]
CCCC1=C/C(=C/c2ccc(-c3ccccc3OC)o2)C(=O)O1,"inconclusive: 28.2 µM [inhibitor, full curve]",
CO[C@H]1O[C@H](C)[C@@H](O)C[C@H]1NC(=O)OCc1ccccc1,"inconclusive: 10 µM [inhibitor, single point]",
CCn1nnc2sc3c(c2c1=O)CCC(C)C3 (stereo not given),inactive,
COc1ccc(Cl)cc1NC(=O)COc1cccc2c(=O)n(C)ccc12,"inconclusive: 3.55 µM [inhibitor, full curve]",
COC(=O)c1ccc(NC(=O)CN(C)S(=O)(=O)c2ccc3c(c2)CCCC(=O)N3)cc1,inactive,
CCN(CC)S(=O)(=O)c1ccc2oc(C(=O)N3CCc4ccccc4C3)c(C)c2c1,"inconclusive: 89.1 µM [inhibitor, single point]",
CC1=NN(c2ccc(N)cc2)C(=O)C1,inactive,

# Given bar-delimited: part of the list above
Compound | Potency | activity change, negative = inhibition
CCn1nnc2sc3c(c2c1=O)CCC(C)C3 (stereo not given) | inactive | 
COc1ccc(Cl)cc1NC(=O)COc1cccc2c(=O)n(C)ccc12 | inconclusive: 3.55 µM [inhibitor, full curve] | 
COC(=O)c1ccc(NC(=O)CN(C)S(=O)(=O)c2ccc3c(c2)CCCC(=O)N3)cc1 | inactive | 
CCN(CC)S(=O)(=O)c1ccc2oc(C(=O)N3CCc4ccccc4C3)c(C)c2c1 | inconclusive: 89.1 µM [inhibitor, single point] | 

# Later entries

Compound,Potency,"activity change, negative = inhibition"
Cc1ccc2cccc(OCc3ccccc3)c2n1,inactive,
CC1(C)CC(=O)C2=C(C1)OC(N)=C(C#N)C2c1ccsc1 (stereo not given),"inconclusive: 28.2 µM [inhibitor, single point]",
COc1ccc(-c2ccc(/C=N/NC(=O)c3cccnc3)o2)c([N+](=O)[O-])c1,"inconclusive: 2 µM [inhibitor, full curve, poor fit]",
Cc1sc2ncn(CC(=O)N3CCN(c4cccc(Cl)c4)CC3)c(=O)c2c1S(=O)(=O)N1CCC(C)CC1,inactive,
Cc1nn2c(-c3cccc(NC(=O)c4ccco4)c3)nnc2c2ccccc12,"inconclusive: 15.8 µM [inhibitor, partial curve]",
C=CCc1c(C)nc(-c2ccccc2)nc1N/N=C(\C)c1ccccc1,"inconclusive: 89.1 µM [inhibitor, single point]",
O=C(NCC(c1ccco1)S(=O)(=O)c1cccs1)c1c(F)cccc1F (stereo not given),"inconclusive: 89.1 µM [inhibitor, single point]",
CCN(CC)C(=O)c1sc2c(c1C)c(=O)n(Cc1ccccc1)c(=O)n2Cc1c(C)cc(C)cc1C,"inconclusive: 89.1 µM [inhibitor, single point]",
Cc1ccc2[nH]c(C)c(CCNC(=O)c3cc4cc(Br)ccc4oc3=O)c2c1,inactive,
COc1ccccc1OCC(=O)N/N=C/C=C/c1ccc([N+](=O)[O-])o1,active: 31.6 µM,
O=C(NCC(c1cccnc1)N1CCc2ccccc21)c1cccc(F)c1 (stereo not given),"inconclusive: 89.1 µM [inhibitor, single point]",
CS(=O)(=O)Cc1cc(N2CCCC2)nc(-c2ccccc2)n1,"inconclusive: 0.708 µM [inhibitor, full curve, poor fit]",
COc1ccc(C(=O)NC(=S)N2CCC(C)CC2)cc1,"inconclusive: 89.1 µM [inhibitor, single point]",
C=CCOc1ccccc1NC(=O)CN1C(=O)CNC1=O,"inconclusive: 89.1 µM [inhibitor, single point]",
NC(=Nc1ccc(N)cc1)C(N)=Nc1ccc(N)cc1,"inconclusive: 5.62 µM [inhibitor, full curve]",
Cc1cc(C)cc(-n2c(=O)c3sccc3n(CC(=O)NCc3ccco3)c2=O)c1,"inconclusive: 3.16 µM [inhibitor, partial curve, poor fit]",
CCOC(=O)COc1ccc(C(=O)Nc2cccc(Cl)c2C)cc1,"inconclusive: 89.1 µM [inhibitor, single point]",
CCOc1ccccc1CNC(=O)CCCn1c(=O)c2cccn2c2ccc(F)cc21,inactive,
Cc1ccc(CNC(=O)c2cc(NS(=O)(=O)c3ccc(C)cc3)ccn2)cc1,"inconclusive: 0.794 µM [inhibitor, full curve, poor fit]",
CCCCn1c(=O)c2ccccc2n2c(=S)[nH]nc12,inactive,
Cc1nnc(N2C(=O)c3oc4ccccc4c(=O)c3C2c2ccco2)s1 (stereo not given),active: 20 µM,
O=C(Nc1nnc(S(=O)(=O)N2CCCCC2)s1)c1cccc(Br)c1,inactive,
